Reference: PubChem BioAssay AID540276 (National Center for Advancing Translational Sciences (NCATS), 2011)
Among all 300,000 compounds or so, about 5,400 (1.8%) were called active. The inconclusive results got no clear call from the source; some entries with a clear call stand among them for comparison. The call rests on the fitted dose curve; tested in HEK293 cells. A potency beside an inconclusive call is a rough fit, not a confirmed value.

test: qHTS for inhibitors of binding or entry into cells for Marburg Virus; conditions: Marburg virus pseudotyped entry inhibition, cell reporter; activity change, negative = inhibition: at 37.8 µM (top of the series) unless noted
On the % scale 0 is the no-effect control and ±100 the full control effect; potency means the concentration at half of the fitted maximal effect.

Row | SMILES | Potency | activity change, negative = inhibition
1 | CCOC(=O)C1=C(c2cccc(Oc3ccccc3)c2)NC(=S)NC1C (stereo not given) | inconclusive: 25.1 µM [inhibitor, single point] | 
2 | CCOC(=O)C1CCN(Cc2ccc(Cl)nc2)CC1 | inconclusive: 3.98 µM [inhibitor, single point] | 
3 | COc1ccc(C(CNC(=O)c2ccc(Cl)c(NC(=O)c3cccs3)c2)N2CCCC2)cc1 (stereo not given) |  | inactive: -20.4%
4 | CCN1CCN(c2cc(C)c3cc(NC(=O)c4cc(Br)ccc4Cl)ccc3n2)CC1 | inconclusive: 11.2 µM [inhibitor, partial curve, poor fit] | 
5 | CCC1(C)COC2(OC1)C(=O)Nc1ccccc12 (stereo not given) | inconclusive: 0.146 µM [activator, full curve, poor fit] | 
6 | O=C(Nc1ccc(Cl)c(S(=O)(=O)Nc2ccccc2Cl)c1)c1cccs1 |  | inactive: -30.9%
7 | Cn1ccnc1SCC(=O)c1ccc(Cl)cc1 | inconclusive: 12.6 µM [activator, partial curve, poor fit] | 
8 | CC(C)(C)NCC(O)COc1nsnc1N1CCOCC1 (stereo not given) | inconclusive: 0.112 µM [inhibitor, partial curve, poor fit] | 
9 | CC1(c2ccccc2)NCCN2C(=O)CSC21 (stereo not given) | inconclusive: 35.5 µM [inhibitor, single point] | 
10 | CC(=O)Oc1cccc(C(=O)Nc2ccccc2NC(=O)c2cccc(OC(C)=O)c2)c1 |  | inactive: 0.627%
11 | Cc1sc2nc(-c3ccccc3)oc(=O)c2c1C | inconclusive: 2.82 µM [activator, single point] | 
12 | Cc1ccc(C)c(S(=O)(=O)N2CCCOC2CNC(=O)C(=O)NC2CCCCC2)c1 (stereo not given) | inconclusive: 0.501 µM [inhibitor, partial curve, poor fit] | 
13 | COc1ccc(NC(=O)c2cc3ccc(O)cc3o/c2=N\O)cc1 | inconclusive: 7.08 µM [inhibitor, partial curve, poor fit] | 
14 | Cc1ccc(N2C(=O)c3n[nH]c(C)c3C2c2ccco2)cc1 (stereo not given) | inactive | 
15 | Cc1ccc(NC(=O)CSc2nccn2Cc2ccco2)cc1 |  | inactive: 18%
16 | O=C(O)COc1ccc(/C=N/n2c(COc3ccccc3)nc3ccccc3c2=O)cc1 |  | inactive: 7.34%
17 | COc1ccc(S(=O)(=O)N2CCC(C(=O)NCC3CCCO3)CC2)cc1Cl (stereo not given) | inconclusive: 2.82 µM [activator, partial curve, poor fit] | 
18 | Cc1cc(C)c(O)c(CN(C)Cc2cc(Cl)cc(Cl)c2O)c1 | active: 3.16 µM | 
19 | CCOc1cccc2cc(C(=O)NCc3ccc(Cl)cc3)c(=N)oc12 | inconclusive: 35.5 µM [inhibitor, single point] | 
20 | CCc1ccc(S(=O)(=O)ON2C(=O)c3ccccc3C2=O)cc1 |  | inactive: 21.3% [at 14.2 µM]
21 | Cc1ccc(CN2CCN(CC(=O)N/N=C/c3c[nH]c4ccccc34)CC2)cc1 |  | inactive: 2.68%
22 | O=C1c2[nH]nc(-c3ccccc3O)c2C(c2cccc(Br)c2)N1Cc1ccncc1 (stereo not given) | inconclusive: 7.08 µM [inhibitor, partial curve, poor fit] | 

Exported in CSV form: entries from further up.
Row,SMILES,Potency,"activity change, negative = inhibition"
2,CCOC(=O)C1CCN(Cc2ccc(Cl)nc2)CC1,"inconclusive: 3.98 µM [inhibitor, single point]",
6,O=C(Nc1ccc(Cl)c(S(=O)(=O)Nc2ccccc2Cl)c1)c1cccs1,,inactive: -30.9%
21,Cc1ccc(CN2CCN(CC(=O)N/N=C/c3c[nH]c4ccccc34)CC2)cc1,,inactive: 2.68%

Remaining list, next part

Row | SMILES | Potency | activity change, negative = inhibition
23 | CCOC(=O)c1ccc(NC(=O)c2cccc3c(=O)c4c([nH]c23)CCCC4)cc1 | inconclusive: 6.31 µM [inhibitor, single point] | 
24 | CC1CCCN(C2=NC(=O)/C(=C/c3cn(-c4ccccc4)nc3-c3cccc(S(=O)(=O)N(C)C)c3)S2)C1 (stereo not given) |  | inactive: 4.98%
25 | Cc1ccc(N(CC(O)CN2CCCCC2)S(=O)(=O)c2ccc(C)cc2)cc1 (stereo not given) | inconclusive: 0.316 µM [inhibitor, full curve, poor fit] | 
26 | CC(CN1CCCCC1)NC(=O)c1cc(-c2ccccn2)nc2ccc(Cl)cc12 (stereo not given) | inconclusive: 6.31 µM [inhibitor, single point] | 
27 | COc1ccc(-n2c(Cc3ccccc3)nnc2SCc2nc(-c3ccccc3C)no2)cc1 | inconclusive: 6.31 µM [inhibitor, single point] | 
28 | O=C(CN1CCN(S(=O)(=O)c2ccc3ccccc3c2)CC1)Nc1ccc2c(c1)CCC2 | inconclusive: 7.08 µM [inhibitor, full curve, poor fit] | 
29 | Cc1ccc(-c2n[nH]c(=S)n2/N=C/c2ccncc2)cc1 | inconclusive: 3.16 µM [inhibitor, partial curve, poor fit] | 
30 | CN1CC=C2C(C#N)=C(N)C(C#N)(C#N)[C@H](c3cccs3)[C@H]2C1 |  | inactive: -12.1%
31 | O=C(Nc1ccccc1O)c1ccc2c(c1)C(=O)N(N1C(=O)c3ccccc3C1=O)C2=O | inconclusive: 12.6 µM [activator, single point] | 
32 | CC(C)(C)OC(=O)N1CCN(c2ccc(CNC(=O)c3ccc(Cl)cc3)cc2)CC1 | inconclusive: 20.6 µM [inhibitor, single point] | 
33 | COc1ccc(C(=O)CSc2nnc(COc3ccc(C#N)cc3)n2-c2ccccc2)cc1 | inconclusive: 1.46 µM [inhibitor, full curve, poor fit] | 
34 | CC(C)NC(=O)C(=O)NNC(=O)CCc1ccccc1 |  | inconclusive: 1.88% [activator] [at 46.1 µM]
35 | CCc1cc2c(cc3c(=O)n(CC(=O)NC4CCC(C)CC4)nc(CC)n32)s1 (stereo not given) | inconclusive: 35.5 µM [activator, single point] | 
36 | CCC/C(=N/NC(=O)c1ccc2c(c1)OCO2)c1cccs1 | inconclusive: 32.6 µM [inhibitor, single point] | 
37 | Cc1cc(C)cc(NC(c2cccc(Cl)c2)c2nnc(-c3ccccc3)o2)c1 (stereo not given) | inconclusive: 25.1 µM [inhibitor, partial curve, poor fit] | 
38 | CCCN(CCC)C(=O)CCSCCC(=O)N(CCC)CCC |  | inactive: -12.8%
39 | CC12CCC(=O)C=C1C=CC1C2CCC2(C)C(O)CCC12 (stereo not given) | inconclusive: 2.82 µM [inhibitor, partial curve, poor fit] | 
40 | COc1cccc(C(=O)COc2cccc(NC(=O)c3cccc([N+](=O)[O-])c3)c2)c1 | inconclusive: 3.98 µM [inhibitor, partial curve, poor fit] | 
41 | Cc1ccc(CNCc2ccc3c(c2)OCO3)cc1 | inconclusive: 11.2 µM [inhibitor, single point] | 
42 | CSc1nc(N2CCOCC2)c2ccccc2n1 |  | inactive: 2.66%
43 | Cc1cccc2c1-c1sc(C(=O)Nc3ccccc3C(N)=O)cc1CO2 |  | inconclusive: 89.1% [activator] [at 46.1 µM]
44 | CCCC(C(=O)NCc1ccco1)N(C(=O)CNS(=O)(=O)c1ccccc1)c1ccccc1OC (stereo not given) | inconclusive: 14.1 µM [inhibitor, single point] | 

Another view of 2 compounds above.

| Row | SMILES | Potency | activity change, negative = inhibition |
| --- | --- | --- | --- |
| 18 | Cc1cc(C)c(O)c(CN(C)Cc2cc(Cl)cc(Cl)c2O)c1 | active: 3.16 µM |  |
| 19 | CCOc1cccc2cc(C(=O)NCc3ccc(Cl)cc3)c(=N)oc12 | inconclusive: 35.5 µM [inhibitor, single point] |  |

Later entries:

Row | SMILES | Potency | activity change, negative = inhibition
45 | Cc1nc(SCC(=O)Nc2ccccc2Cl)cc(-c2ccccc2)n1 | inconclusive: 5.62 µM [inhibitor, single point] | 
46 | COc1ccc(NC(=O)COc2cccc(-n3cnnn3)c2)cc1 |  | inactive: -0.316% [at 46.1 µM]
47 | O=C(COC(=O)C1CCN(c2ccc(C(F)(F)F)cn2)CC1)NCc1cccc(Cl)c1 |  | inactive: -20%
48 | O=C1N/C(=N/N=C/c2ccccc2O)SC1Cc1ccc(F)cc1 (stereo not given) | inconclusive: 8.91 µM [inhibitor, partial curve, poor fit] | 
49 | C/C(=N\NC(=O)c1ccc(CSc2nc(C)cc(C)n2)cc1)C1CCCCC1 | inconclusive: 0.251 µM [inhibitor, full curve, poor fit] | 
50 | O=C(Nc1ccccc1N1CCOCC1)c1ccc([N+](=O)[O-])s1 | inconclusive: 17.8 µM [inhibitor, single point] | 
51 | CCOC(=O)C1=C2c3cc(OC)c(OC)cc3CC(C)(C)N2C(=O)C1=O | inconclusive: 5.01 µM [activator, full curve, poor fit] | 
52 | COC(=O)CNC(=O)c1cc(-c2ccncc2)nc2c(C)c(Cl)ccc12 |  | inactive: -9.4% [at 46.1 µM]
53 | COc1ccc(-n2nc(C(=O)NCC(=O)Nc3cc(OC)c(OC)c(OC)c3)c3ccccc3c2=O)cc1 | inconclusive: 3.55 µM [inhibitor, partial curve, poor fit] | 
54 | COc1cccc(OC)c1C(=O)NC(=S)Nc1ccc2oc(-c3ccncc3)nc2c1 | inconclusive: 0.562 µM [inhibitor, full curve, poor fit] | 
55 | CN(C)CCN(C(=O)/C=C/c1cccs1)c1nc2ccc(F)cc2s1 | inconclusive: 35.5 µM [inhibitor, single point] | 
56 | Cc1cc(C)c2ccc(N)nc2c1O | inconclusive: 11.2 µM [inhibitor, partial curve, poor fit] | 
57 | CCOc1cc(C)c(Cl)cc1S(=O)(=O)NCc1ccc2c(c1)OCO2 | inconclusive: 10 µM [inhibitor, partial curve, poor fit] | 
58 | CCc1cccc(N=c2c([N+](=O)[O-])nn(-c3ccc4c(c3)OCCO4)n2O)c1 | inconclusive: 35.5 µM [inhibitor, partial curve, poor fit] | 
59 | CCN(CC)c1ccc(N=C2C=CC(=O)C=C2NC(C)=O)cc1 | inconclusive: 3.55 µM [activator, partial curve, poor fit] | 
60 | O=S(=O)(NCc1ccco1)c1cccc(S(=O)(=O)N2CCCCC2)c1 | inconclusive: 2 µM [inhibitor, partial curve, poor fit] | 
61 | O=C(O)CN1C(=O)C(=O)N(Cc2cccc(F)c2)C1=O | inconclusive: 12.6 µM [activator, single point] | 
62 | COCCCNC(=O)c1sc2nc(C)c(C(=O)Nc3ccc(Cl)cc3)c(-c3ccc(Br)cc3)c2c1N | inconclusive: 3.55 µM [inhibitor, single point] | 
63 | Cc1[nH]n(-c2ccccc2)c(=O)c1C=NC1CCCCCC1 |  | inactive: -12.4%
64 | Cc1onc(-c2c(F)cccc2Cl)c1C(=O)OCC(=O)Nc1cccc(S(=O)(=O)N(C)C)c1 | active: 15.8 µM | 
65 | O=C1C2C3C=CC(O3)C2C(=O)N1CC(O)c1ccccc1 (stereo not given) |  | inactive: 8.43%
